Assay results as given in PMC7447793.
No constants are given. Whether binding was seen depends on the method and setting. Binding seen in cells or lysates may run through a third protein. Some results given as binding are weak or reduced against the parent protein; the word gives no strength. Where a sequence is shown, tags or fusion partners need not be part of it.

Target: T1, Flag-TIPE (tumor necrosis factor α-induced protein 8) (UniProt O95379)
T1 sequence: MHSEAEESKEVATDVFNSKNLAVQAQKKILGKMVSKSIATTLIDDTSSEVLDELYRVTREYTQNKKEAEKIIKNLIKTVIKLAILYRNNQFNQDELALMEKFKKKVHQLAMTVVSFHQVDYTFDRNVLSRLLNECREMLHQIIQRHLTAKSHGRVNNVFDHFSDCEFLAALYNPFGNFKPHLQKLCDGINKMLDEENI
Assay: co-IP; HEK293T cells co-transfected with expression plasmids for Flag-TIPE and HA-MKK-3; whole-cell lysates analyzed by co-immunoprecipitation

B1: HA-MKK-3 (mitogen-activated protein kinase kinase 3) (protein, UniProt P46734 1-347)
chain: MESPASSQPASMPQSKGKSKRKKDLRISCMSKPPAPNPTPPRNLDSRTFITIGDRNFEVEADDLVTISELGRGAYGVVEKVRHAQSGTIMAVKRIRATVNSQEQKRLLMDLDINMRTVDCFYTVTFYGALFREGDVWICMELMDTSLDKFYRKVLDKNMTIPEDILGEIAVSIVRALEHLHSKLSVIHRDVKPSNVLINKEGHVKMCDFGISGYLVDSVAKTMDAGCKPYMAPERINPELNQKGYNVKSDVWSLGITMIEMAILRFPYESWGTPFQQLKQVVEEPSPQLPADRFSPEFVDFTAQCLRKNPAERMSYLELMEHPFFTLHKTKKTDIAAFVKEILGEDS
- binding: binds
